We go through one substance from PMC6453563.

Amino acid sequences for entries named in this document (tags omitted).
UniProt Q9VSL8: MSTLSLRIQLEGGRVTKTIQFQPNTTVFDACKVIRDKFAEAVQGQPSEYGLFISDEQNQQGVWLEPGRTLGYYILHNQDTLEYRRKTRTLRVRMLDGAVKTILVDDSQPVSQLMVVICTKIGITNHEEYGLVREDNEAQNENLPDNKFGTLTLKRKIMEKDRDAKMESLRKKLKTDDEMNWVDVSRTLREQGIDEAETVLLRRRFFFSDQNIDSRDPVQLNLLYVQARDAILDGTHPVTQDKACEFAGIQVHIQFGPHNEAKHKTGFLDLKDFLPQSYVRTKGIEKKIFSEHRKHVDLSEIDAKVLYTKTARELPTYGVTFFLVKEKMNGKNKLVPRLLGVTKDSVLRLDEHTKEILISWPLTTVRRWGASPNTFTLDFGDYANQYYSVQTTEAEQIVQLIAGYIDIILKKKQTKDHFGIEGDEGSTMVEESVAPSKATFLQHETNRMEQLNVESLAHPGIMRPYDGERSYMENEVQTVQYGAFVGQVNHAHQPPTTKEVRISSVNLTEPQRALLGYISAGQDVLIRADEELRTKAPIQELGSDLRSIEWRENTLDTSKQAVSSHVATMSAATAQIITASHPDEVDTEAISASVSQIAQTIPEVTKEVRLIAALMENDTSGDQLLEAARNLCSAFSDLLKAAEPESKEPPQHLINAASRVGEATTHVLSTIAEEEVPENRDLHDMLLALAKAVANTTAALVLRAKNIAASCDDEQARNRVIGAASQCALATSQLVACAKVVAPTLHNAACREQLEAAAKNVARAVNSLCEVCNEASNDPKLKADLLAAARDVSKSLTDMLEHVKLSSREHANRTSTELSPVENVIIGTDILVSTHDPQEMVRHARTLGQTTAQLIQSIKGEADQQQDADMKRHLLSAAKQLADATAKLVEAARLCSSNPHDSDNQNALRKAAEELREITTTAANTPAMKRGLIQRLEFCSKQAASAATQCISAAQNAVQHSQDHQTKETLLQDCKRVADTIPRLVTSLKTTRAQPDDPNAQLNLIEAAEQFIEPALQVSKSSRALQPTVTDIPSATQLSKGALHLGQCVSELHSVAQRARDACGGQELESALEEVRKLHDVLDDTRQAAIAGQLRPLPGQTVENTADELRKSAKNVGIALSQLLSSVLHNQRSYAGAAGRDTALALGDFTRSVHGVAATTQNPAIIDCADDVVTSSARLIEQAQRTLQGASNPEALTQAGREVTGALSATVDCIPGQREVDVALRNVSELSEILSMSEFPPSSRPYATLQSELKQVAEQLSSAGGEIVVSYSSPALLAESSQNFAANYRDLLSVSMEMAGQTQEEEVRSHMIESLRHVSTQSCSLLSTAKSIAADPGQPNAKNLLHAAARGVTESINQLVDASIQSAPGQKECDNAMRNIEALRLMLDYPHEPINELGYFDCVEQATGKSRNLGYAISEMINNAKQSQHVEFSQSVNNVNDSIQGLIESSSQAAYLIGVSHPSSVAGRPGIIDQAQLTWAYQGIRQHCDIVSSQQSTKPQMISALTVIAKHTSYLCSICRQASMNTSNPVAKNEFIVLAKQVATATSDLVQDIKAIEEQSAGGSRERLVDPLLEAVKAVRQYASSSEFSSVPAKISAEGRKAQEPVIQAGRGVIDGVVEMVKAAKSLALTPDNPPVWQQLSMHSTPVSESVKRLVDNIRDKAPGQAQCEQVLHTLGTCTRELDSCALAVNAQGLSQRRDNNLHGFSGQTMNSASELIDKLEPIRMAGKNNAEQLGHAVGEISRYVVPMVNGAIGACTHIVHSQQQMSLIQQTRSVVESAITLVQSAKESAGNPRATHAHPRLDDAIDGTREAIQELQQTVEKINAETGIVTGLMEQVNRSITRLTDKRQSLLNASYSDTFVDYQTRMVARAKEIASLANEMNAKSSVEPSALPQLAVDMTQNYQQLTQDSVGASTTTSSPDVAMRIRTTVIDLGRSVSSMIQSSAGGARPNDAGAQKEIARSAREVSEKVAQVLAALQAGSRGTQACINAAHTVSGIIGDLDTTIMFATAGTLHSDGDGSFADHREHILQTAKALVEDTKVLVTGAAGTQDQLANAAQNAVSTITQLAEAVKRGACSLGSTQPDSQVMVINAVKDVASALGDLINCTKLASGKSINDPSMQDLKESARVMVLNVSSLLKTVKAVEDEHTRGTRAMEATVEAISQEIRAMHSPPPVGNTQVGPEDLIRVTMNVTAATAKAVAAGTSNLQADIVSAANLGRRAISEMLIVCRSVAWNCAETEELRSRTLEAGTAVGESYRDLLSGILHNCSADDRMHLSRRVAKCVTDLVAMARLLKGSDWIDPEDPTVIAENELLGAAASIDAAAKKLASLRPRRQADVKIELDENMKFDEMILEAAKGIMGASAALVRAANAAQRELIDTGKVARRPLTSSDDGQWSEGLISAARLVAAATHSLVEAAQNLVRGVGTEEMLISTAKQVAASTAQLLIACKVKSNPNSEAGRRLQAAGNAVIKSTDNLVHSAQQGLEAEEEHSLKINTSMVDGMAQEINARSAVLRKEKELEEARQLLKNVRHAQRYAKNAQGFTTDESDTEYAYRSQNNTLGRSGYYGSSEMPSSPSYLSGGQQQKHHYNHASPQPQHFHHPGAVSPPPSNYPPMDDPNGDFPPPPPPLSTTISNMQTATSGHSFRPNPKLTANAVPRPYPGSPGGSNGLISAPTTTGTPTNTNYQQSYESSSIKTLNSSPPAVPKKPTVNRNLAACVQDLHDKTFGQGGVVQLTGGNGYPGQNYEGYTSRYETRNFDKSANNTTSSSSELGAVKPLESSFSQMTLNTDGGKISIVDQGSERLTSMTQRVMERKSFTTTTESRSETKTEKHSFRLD

The target in this assay is Talin with internal YPet (Talin-I-YPet) (Drosophila) (UniProt Q9VSL8). Kind of assay: fluorescence correlation spectroscopy (molecular brightness); in vivo FCS in the muscle interior next to the muscle attachment site of living talin-I-YPet pupae (20, 24, 30 h APF); brightness (counts per particle) of Talin-I-YPet particles compared with free monomeric YPet expressed in flight muscles.

These are yes or no findings as the source states them, for the method shown.

On to “Talin with internal YPet (Talin-I-YPet) (from UniProt Q9VSL8 1-2836)”, for which the binding entry is “no binding”.
